assay: Absolute quantitation of TUMAP copies per cell by nanoLC-MS/MS, isolation efficiency and DNA-based cell count; design: species or system human; conditions: absolute peptide quantitation in tumor samples

Copies per cell (median), ++ (>=100 = ++):
325 (RLLPKVQEV; listed as Homo sapiens) [compound 325], 70 (GLFSQHFNL; listed as Homo sapiens) [compound 70], 323 (ILSVVNSQL; listed as Homo sapiens) [compound 323]
